Measurements published in paper PMC10434054.
No constants are given. Whether binding was seen depends on the method and setting. In cells and extracts the contact can be indirect. Some entries that bind do so weakly or less than the wild type. Tags and fused reporters may be left off the sequences shown.

Amino acid sequences for entries named in this document (tags omitted). Residues count along the entry.
UniProt P35579: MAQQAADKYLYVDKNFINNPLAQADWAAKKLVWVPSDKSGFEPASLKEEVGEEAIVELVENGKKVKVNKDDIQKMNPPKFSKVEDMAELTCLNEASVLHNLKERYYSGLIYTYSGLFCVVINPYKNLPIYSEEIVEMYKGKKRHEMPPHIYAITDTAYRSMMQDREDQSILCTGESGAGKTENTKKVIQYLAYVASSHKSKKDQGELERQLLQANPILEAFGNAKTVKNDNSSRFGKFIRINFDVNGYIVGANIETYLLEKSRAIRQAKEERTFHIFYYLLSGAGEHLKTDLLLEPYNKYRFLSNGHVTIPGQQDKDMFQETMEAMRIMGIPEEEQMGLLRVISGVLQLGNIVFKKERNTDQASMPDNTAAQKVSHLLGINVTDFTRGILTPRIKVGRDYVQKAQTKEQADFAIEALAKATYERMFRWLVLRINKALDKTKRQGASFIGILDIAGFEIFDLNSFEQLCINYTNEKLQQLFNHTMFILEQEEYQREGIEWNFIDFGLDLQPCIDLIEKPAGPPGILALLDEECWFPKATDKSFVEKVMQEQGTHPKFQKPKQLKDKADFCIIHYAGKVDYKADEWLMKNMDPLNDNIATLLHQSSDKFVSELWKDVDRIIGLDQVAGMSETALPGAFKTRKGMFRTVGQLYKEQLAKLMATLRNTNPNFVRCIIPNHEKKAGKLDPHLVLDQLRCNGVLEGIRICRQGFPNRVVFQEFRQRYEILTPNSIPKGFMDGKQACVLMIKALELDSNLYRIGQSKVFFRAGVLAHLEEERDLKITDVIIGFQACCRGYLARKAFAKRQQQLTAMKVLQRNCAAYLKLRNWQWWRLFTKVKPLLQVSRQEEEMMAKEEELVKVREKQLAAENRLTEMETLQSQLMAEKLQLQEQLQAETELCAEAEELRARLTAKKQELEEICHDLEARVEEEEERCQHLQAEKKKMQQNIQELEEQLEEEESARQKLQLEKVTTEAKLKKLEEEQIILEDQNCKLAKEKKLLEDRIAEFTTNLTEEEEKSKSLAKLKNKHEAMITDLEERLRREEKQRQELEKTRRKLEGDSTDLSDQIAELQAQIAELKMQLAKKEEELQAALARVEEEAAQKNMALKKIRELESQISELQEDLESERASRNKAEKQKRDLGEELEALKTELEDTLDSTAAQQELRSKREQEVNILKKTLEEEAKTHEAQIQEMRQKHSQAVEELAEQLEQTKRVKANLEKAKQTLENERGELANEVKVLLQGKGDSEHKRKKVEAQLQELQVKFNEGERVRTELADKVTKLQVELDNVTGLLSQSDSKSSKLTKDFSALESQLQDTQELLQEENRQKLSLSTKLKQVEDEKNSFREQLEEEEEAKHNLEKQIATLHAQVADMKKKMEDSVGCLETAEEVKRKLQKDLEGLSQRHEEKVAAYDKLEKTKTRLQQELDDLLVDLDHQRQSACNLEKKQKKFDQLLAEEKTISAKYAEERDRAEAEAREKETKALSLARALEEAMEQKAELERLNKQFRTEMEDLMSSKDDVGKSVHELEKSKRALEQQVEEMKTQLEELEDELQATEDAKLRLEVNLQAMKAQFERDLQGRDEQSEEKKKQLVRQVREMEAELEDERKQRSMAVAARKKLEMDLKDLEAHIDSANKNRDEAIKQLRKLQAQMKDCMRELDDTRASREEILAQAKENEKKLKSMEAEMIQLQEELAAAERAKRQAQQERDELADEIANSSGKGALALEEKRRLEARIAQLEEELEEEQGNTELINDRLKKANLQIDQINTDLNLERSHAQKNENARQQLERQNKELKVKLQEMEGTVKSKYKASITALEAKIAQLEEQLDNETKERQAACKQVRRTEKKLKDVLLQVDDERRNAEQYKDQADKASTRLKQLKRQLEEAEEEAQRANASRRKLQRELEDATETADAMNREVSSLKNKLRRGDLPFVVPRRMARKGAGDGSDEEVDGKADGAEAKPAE
UniProt P30101, residues 25-505: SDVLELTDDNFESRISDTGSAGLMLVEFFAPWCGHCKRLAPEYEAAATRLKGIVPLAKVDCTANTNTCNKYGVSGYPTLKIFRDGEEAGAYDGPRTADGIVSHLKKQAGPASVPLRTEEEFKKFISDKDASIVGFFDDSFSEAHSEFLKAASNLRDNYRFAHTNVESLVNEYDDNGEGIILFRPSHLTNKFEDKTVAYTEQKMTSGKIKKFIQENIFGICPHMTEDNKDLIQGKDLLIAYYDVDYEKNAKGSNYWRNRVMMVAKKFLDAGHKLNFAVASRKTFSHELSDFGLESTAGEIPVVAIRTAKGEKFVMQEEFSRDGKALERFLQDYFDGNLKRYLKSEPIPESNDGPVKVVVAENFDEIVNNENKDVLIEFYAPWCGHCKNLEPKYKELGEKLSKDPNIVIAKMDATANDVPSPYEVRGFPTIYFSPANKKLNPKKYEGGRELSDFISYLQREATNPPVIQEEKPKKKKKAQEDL

Target: T1, wild-type FAM46C, C-terminally Myc-DDK tagged (human) (UniProt Q5VWP2)
T1 sequence: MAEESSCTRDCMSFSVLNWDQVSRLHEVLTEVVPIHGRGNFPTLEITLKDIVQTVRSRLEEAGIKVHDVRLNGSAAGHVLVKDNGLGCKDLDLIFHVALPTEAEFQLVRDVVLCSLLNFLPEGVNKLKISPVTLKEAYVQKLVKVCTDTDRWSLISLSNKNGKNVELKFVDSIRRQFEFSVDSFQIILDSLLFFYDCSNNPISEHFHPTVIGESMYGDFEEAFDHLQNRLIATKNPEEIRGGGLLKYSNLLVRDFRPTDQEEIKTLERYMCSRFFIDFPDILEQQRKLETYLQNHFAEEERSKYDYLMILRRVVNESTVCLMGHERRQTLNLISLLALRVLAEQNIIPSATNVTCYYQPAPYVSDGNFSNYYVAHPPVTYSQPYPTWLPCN
Assay: co-IP; anti-FLAG immunoprecipitation of FAM46C from HEK-293T lysate as for the mass spectrometry, Western blotting with α-MYH9 and α-PDIA3 antibodies; in the presence of viral proteins

binding	Substance
binds	Myosin-9 (MYH9) (from UniProt P35579 1-1960)
binds	PDIA3 (from UniProt P30101 25-505)
